According to PubChem BioAssay AID1671190 (National Center for Advancing Translational Sciences (NCATS), 2021):
Among all 580,000 compounds or so, about 6,100 (1.1%) were called active. Inconclusive means that the source gave no clear call. Such entries were picked first, then a sample of the others. The call rests on the fitted dose curve; in most records, active means well fitted inhibition curve with a large enough effect; inconclusive means small, poorly fitted or top-dose-only effect, or another doubt; inactive means no such curve, though single readings can be large or run the other way. Potencies of inconclusive entries are doubtful fits and often do not repeat.
On the % scale 0 is the no-effect control and ±100 the full control effect; potency means the concentration at half of the fitted maximal effect.

Chains of the proteins cited; added tags and fusions are not shown.
UniProt P18054, whole entry, looked up: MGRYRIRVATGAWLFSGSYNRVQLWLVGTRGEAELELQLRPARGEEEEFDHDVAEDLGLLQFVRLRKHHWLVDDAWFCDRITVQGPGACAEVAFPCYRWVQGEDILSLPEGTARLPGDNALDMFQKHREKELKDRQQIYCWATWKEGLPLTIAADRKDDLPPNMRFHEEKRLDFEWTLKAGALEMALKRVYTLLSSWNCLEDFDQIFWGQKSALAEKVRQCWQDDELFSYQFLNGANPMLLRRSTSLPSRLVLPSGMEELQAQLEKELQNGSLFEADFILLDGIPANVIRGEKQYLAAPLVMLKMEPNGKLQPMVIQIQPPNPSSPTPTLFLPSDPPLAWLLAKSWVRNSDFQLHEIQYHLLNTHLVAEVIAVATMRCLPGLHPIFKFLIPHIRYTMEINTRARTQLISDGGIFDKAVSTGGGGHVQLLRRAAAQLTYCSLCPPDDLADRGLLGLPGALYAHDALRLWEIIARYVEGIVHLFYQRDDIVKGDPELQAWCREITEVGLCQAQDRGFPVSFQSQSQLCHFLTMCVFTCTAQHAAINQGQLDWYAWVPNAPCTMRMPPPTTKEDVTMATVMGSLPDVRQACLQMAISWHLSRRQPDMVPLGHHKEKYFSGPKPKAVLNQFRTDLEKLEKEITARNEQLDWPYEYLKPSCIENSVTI

These compounds were tested against Polyunsaturated fatty acid lipoxygenase ALOX12 (Homo sapiens) (UniProt P18054) (assay: Primary qHTS assay for inhibitors of human arachidonate 12S-lipoxygenase (ALOX12): Round 2). Settings: purified 12hLO, xylenol orange hydroperoxide absorbance; activity change, negative = inhibition: at 108 µM (top of the series) unless noted.
Procedure, shortened: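 Hydroperoxide product was detected by ferrous iron/xylenol orange as the 573 to 405 nm absorbance ratio. Arachidonic acid at 40 uM (final) was turned over for 30 min at room temperature by 150 nM human 12hLO, pH 7.0 Hepes buffer, after 15 min compound preincubation.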
`CCNc1c(NC(=O)Nc2ccc(F)cc2F)c(=O)oc2ccccc12` was tested, and the Potency was inconclusive: 50.1 µM [inhibitor, partial curve, poor fit]. `CS(=O)(=O)c1nc(S(=O)(=O)c2ccc(Cl)cc2)c(NCCc2ccccc2)s1` was tested, and the Potency was inconclusive: 28.2 µM [inhibitor, partial curve, poor fit]. `CC(C)N1CCN(C(=O)CCC2CCN(S(=O)(=O)c3ccccc3)CC2)CC1` was tested, and the “activity change, negative = inhibition” value was inactive: 6.91%. In the case of `CCN(CC)C(=O)CSC1=C(C#N)C(c2ccco2)C(C(=O)OCCOC)=C(C)N1` (configuration not stated), the Potency is reported as “inactive”. For `CC(NC(=O)c1cccc(S(=O)(=O)Nc2ccc3c(c2)OCO3)c1)c1ccc2c(c1)OCCO2` (configuration not stated), the Potency was inconclusive: 158 µM [inhibitor, single point]. In the case of `COc1cc(C(=O)OC(C)C(=O)NC2CCCCC2C)c([N+](=O)[O-])cc1OC` (configuration not stated), the “activity change, negative = inhibition” value is reported as inactive: -12.2%. In the case of `CCn1c(=O)c2c(nc3n2CC(C)CN3CCc2ccccc2)n(C)c1=O` (configuration not stated), the “activity change, negative = inhibition” value is reported as inactive: -27.6%. With `O=c1oc2ccccc2cc1-c1cn(-c2ccccc2)c(=S)[nH]1` the Potency was inconclusive: 63.1 µM [inhibitor, partial curve, poor fit]. In the case of `O=C(Nc1ccc2nc(N3CCN(C4CCCCC4)CC3)cc(C(=O)O)c2c1)c1cccc(Cl)c1`, the Potency is reported as inconclusive: 17.8 µM [inhibitor, full curve, poor fit]. For `CCOc1ccc(Cc2c(C)[nH]c3ccc(C(=O)O)cc3c2=S)cc1`, the Potency was inconclusive: 11.2 µM [inhibitor, full curve, poor fit]. `Cc1ccc(S(=O)(=O)NCC(c2ccco2)S(=O)(=O)c2ccccc2)cc1` (configuration not stated) was tested, and the Potency was inconclusive: 100 µM [inhibitor, single point]. In the case of `CCn1c(=O)n(CC)c2cc(S(=O)(=O)c3ccccc3)c(NC(=O)c3c(F)cccc3F)cc21`, the “activity change, negative = inhibition” value is reported as inactive: -43.9%. For `O=C(NCCCNC1CCCCC1)c1cc2ccccc2[nH]1`, the Potency was inconclusive: 50.1 µM [inhibitor, partial curve, poor fit]. For `N#CC1=C2SCC(O)(c3ccccc3)N2C(=O)CC1c1ccccc1F` (configuration not stated), the “activity change, negative = inhibition” value was inactive: 0%. `Cc1ccc(C(=O)N/N=C2/NC(=O)CC(C(=O)Nc3ccccc3)S2)cc1` (configuration not stated) was tested, and the “activity change, negative = inhibition” value was inactive: -2.77%. `CN(Cc1cccnc1)C1CN(C(=O)C2CCC2)C1` was tested, and the Potency was inconclusive: 7.94 µM [inhibitor, full curve]. With `COc1cccc(CN2CCCCC2)c1OC` the Potency was inconclusive: 0.708 µM [inhibitor, full curve, poor fit]. With `COc1cccc(CNC(=O)[C@@H]2CCCN2C(=O)[C@@H]2CCCN2S(=O)(=O)c2ccc(OC)c(C)c2)c1` the Potency was inconclusive: 100 µM [inhibitor, partial curve, poor fit]. For `Cc1nccn1CCCN1CCC2(CC1)C(C(=O)O)CC(=O)N2C` (configuration not stated), the Potency was inconclusive: 50.1 µM [inhibitor, partial curve, poor fit]. With `CCC(c1nnnn1C(C)(C)CC)N(CCCO)Cc1cc2cc(C)cc(C)c2[nH]c1=O` (configuration not stated) the Potency was inconclusive: 39.8 µM [inhibitor, single point]. With `CN(C)C(=O)N1CCC2(CC1)CN(Cc1ccc(O)cc1)Cc1ccccc1O2` the Potency was inconclusive: 20 µM [inhibitor, full curve, poor fit]. For `O=C(N1CCN(c2ncncn2)CC1)N(c1ccccc1)c1ccccc1`, the “activity change, negative = inhibition” value was inactive: 35.9%. In the case of `O=C1CN(C(=O)c2cccc(Br)c2)c2ccccc2N1`, the “activity change, negative = inhibition” value is reported as inactive: -10.9%. For `Cc1cccc(OCC(=O)N2CCCC(c3noc(COc4ccccc4)n3)C2)c1` (configuration not stated), the “activity change, negative = inhibition” value was inactive: 37.5%. In the case of `COc1ccc(S(=O)(=O)N(C)CC(=O)N2CCOCC2)cc1C`, the “activity change, negative = inhibition” value is reported as inactive: -8.53%. For `COc1ccc(OC)c(NC(=S)NCCSc2ccc(C)cc2)c1`, the Potency was inconclusive: 50.1 µM [inhibitor, partial curve, poor fit]. In the case of `O=C(CSc1nnc(-c2cc3ccccc3cc2O)n1Cc1ccco1)N1CCc2ccccc2C1`, the “activity change, negative = inhibition” value is reported as inactive: 13%. With `Cc1cc(N2CCN(C)CC2)nc2ccc(NC(=O)CCC(=O)NCCC3=CCCCC3)cc12` the Potency was inconclusive: 28.2 µM [inhibitor, partial curve, poor fit]. In the case of `O=C(NCC1CC1)c1ccc(-n2ccnc2)c2ccoc12`, the Potency is reported as active: 10 µM. With `Nn1cnnc1N/N=C/c1ccc(F)cc1` the “activity change, negative = inhibition” value was inactive: 0%. For `O=c1c2ccccc2c(-c2ccc(Cl)cc2)nn1-c1cc(N2CCNCC2)ccc1[N+](=O)[O-]`, the Potency was inconclusive: 100 µM [inhibitor, single point]. With `Cc1cccc(OCCCN2CCC(C(O)(c3ccccc3)c3ccccc3)CC2)c1` the Potency was inconclusive: 79.4 µM [inhibitor, partial curve, poor fit]. In the case of `COc1ccc([C@@H]2[C@@H]3C(=O)N(C(C)(C)C)C(=O)[C@@H]3[C@]3(C)C(=O)N(c4ccc(C(F)(F)F)cc4)C(=O)N23)cc1`, the “activity change, negative = inhibition” value is reported as inactive: 0.676%. With `Cn1nnnc1SCc1nc2ccccc2s1` the Potency was inconclusive: 39.8 µM [inhibitor, partial curve, poor fit]. With `O=C1NN=C(c2ccc(Br)cc2)CC1c1ccc(Cl)cc1` (configuration not stated) the Potency was active: 39.8 µM. In the case of `Cc1ccc(/C=C2\CCCC3=C2NC(=S)NC3c2ccc(C)cc2)cc1` (configuration not stated), the Potency is reported as inconclusive: 44.7 µM [inhibitor, partial curve, poor fit]. `Nc1ncnc(Nc2ccccc2)n1` was tested, and the Potency was inconclusive: 18.1 µM [inhibitor, partial curve, poor fit]. With `CN1CCN(c2ncc3nc(-c4ccccc4)c(=O)n(-c4ccccc4)c3n2)CC1` the Potency was inconclusive: 50.1 µM [inhibitor, partial curve, poor fit]. For `COc1ccccc1CNC(=O)C(NC(=O)Nc1ccccc1)C(C)C` (configuration not stated), the Potency was inconclusive: 79.4 µM [inhibitor, partial curve, poor fit]. For `CCOC(=O)c1nn(-c2ccccc2)c(=O)c2c(NC(C)=O)scc12`, the “activity change, negative = inhibition” value was inactive: -13.8%. With `COc1ccc(NC(=O)CN(c2ccc([N+](=O)[O-])cc2)S(=O)(=O)c2ccccc2)c(OC)c1` the “activity change, negative = inhibition” value was inactive: 1.68%. With `O=C(Cn1ccn2nc(-c3ccc(F)cc3)c(CO)c2c1=O)NCc1ccccc1Cl` the “activity change, negative = inhibition” value was inactive: -14.9%. In the case of `COc1cccc(-n2c(Cc3cc(=O)[nH]c(=O)[nH]3)nnc2SCC(=O)NC2CCCCC2)c1`, the Potency is reported as inconclusive: 4.47 µM [inhibitor, partial curve, poor fit]. With `Cc1cccc(NC(=S)NC2CCCCC2)n1` the Potency was active: 39.8 µM. In the case of `CC(NC(=O)c1ccc2c(c1)OCO2)c1ccc2c(c1)CCC(=O)N2` (configuration not stated), the “activity change, negative = inhibition” value is reported as inactive: -4.82%. `Cc1c(C(c2cccc(O)c2)c2c(C)n(C)n(-c3ccccc3)c2=O)c(=O)n(-c2ccccc2)n1C` was tested, and the Potency was inconclusive: 44.7 µM [inhibitor, partial curve, poor fit]. For `C/C(=N/NC(=S)NC(C)C)c1ccc(C2CCCCC2)cc1`, the Potency was inconclusive: 35.5 µM [inhibitor, partial curve, poor fit]. In the case of `Cn1c(=O)c(Oc2ccc(F)cc2F)cc2cnc(NC3CCOCC3)nc21`, the Potency is reported as active: 17.2 µM. With `O=C(NO)c1ccccc1O` the Potency was inconclusive: 44.7 µM [inhibitor, partial curve, poor fit]. For `Cc1cccc(N(C(=O)Cc2cccs2)C(C(=O)NC2CCCC2)c2ccncc2)c1` (configuration not stated), the activity change, negative = inhibition was inconclusive: -34% [inhibitor]. With `COc1ccccc1N1CCN(C(=O)c2ccc(NC(C)=O)cc2)CC1` the Potency was inconclusive: 0.501 µM [inhibitor, full curve, poor fit]. With `Cc1ccccc1CSc1nc2sc(C)c(C)c2c(=O)n1CCCN1CCOCC1` the Potency was inconclusive: 39.8 µM [inhibitor, partial curve]. `CC(C)c1nnc(NC(=O)CSc2ncn[nH]2)s1` was tested, and the Potency was inconclusive: 5.01 µM [inhibitor, full curve, poor fit]. In the case of `CC(=O)N(c1nc(CSc2nnc(C3CC3)n2C2CC2)cs1)c1ccc(C)cc1C`, the Potency is reported as inconclusive: 141 µM [inhibitor, single point]. For `CCN(CC)S(=O)(=O)c1ccc(C(=O)NC(=S)N2CCN(c3ccccc3O)CC2)cc1`, the Potency was inconclusive: 39.8 µM [inhibitor, partial curve, poor fit]. For `COC(=O)Cc1ccc(NC(=S)N2CCCC(CO)C2)cc1` (configuration not stated), the “activity change, negative = inhibition” value was inactive: -0.258%. In the case of `O=C(COC(=O)c1nc(Cl)c(Cl)c(Cl)c1Cl)NCc1ccccc1`, the Potency is reported as inconclusive: 79.4 µM [inhibitor, partial curve, poor fit]. In the case of `O=C(c1ccoc1)N1CCCC(Cc2nc(C3CCOCC3)no2)C1` (configuration not stated), the Potency is reported as inconclusive: 28.2 µM [inhibitor, partial curve, poor fit]. In the case of `COc1ccc(-c2cc(C(=O)O)c3sc(N4CCCCC4)nc3n2)cc1OC`, the Potency is reported as inconclusive: 50.1 µM [inhibitor, partial curve, poor fit]. `CC(C)c1ccc(C2C(C(=O)c3cccs3)=C(O)C(=O)N2c2nncs2)cc1` (configuration not stated) was tested, and the Potency was inconclusive: 8.91 µM [inhibitor, full curve, poor fit]. For `O=C(Cc1ccc(Cl)cc1Cl)Nc1cccc(S(=O)(=O)Nc2ccccc2F)c1`, the Potency was inconclusive: 44.7 µM [inhibitor, partial curve]. `Cc1ccc2nc(-c3ccc(SCC(=O)Nc4nc(C)cs4)nc3)[nH]c2c1` was tested, and the “activity change, negative = inhibition” value was inactive: -12.1%. In the case of `O=C(NCc1ccco1)C1CC(=O)N(c2ccc(O)cc2)C1` (configuration not stated), the “activity change, negative = inhibition” value is reported as inactive: 0%. In the case of `CCCC(C)(N)C(=O)O` (configuration not stated), the Potency is reported as inconclusive: 5.62 µM [inhibitor, full curve]. With `Cc1cc(C)cc(N(CCC(=O)O)S(=O)(=O)c2ccc(Cl)cc2)c1` the Potency was inconclusive: 2.51 µM [inhibitor, full curve, poor fit]. `Cc1ccc(CNC(=O)C2CCN(S(=O)(=O)c3ccc4[nH]c(=O)ccc4c3)CC2)cc1` was tested, and the Potency was inconclusive: 89.1 µM [inhibitor, partial curve, poor fit]. `Cc1cccc(C2=NN(c3ccc(Br)cc3)[C@@H](C(=O)N3CCOC3=O)[C@@H]2c2ccc([N+](=O)[O-])cc2)c1` was tested, and the Potency was inconclusive: 50.1 µM [inhibitor, single point].
